In publication PMC10659188:

T1: Yep1 (full-length, tagged with GFP or mCherry, expressed in S. pombe) (S. pombe) (UniProt O14355)
T1 sequence: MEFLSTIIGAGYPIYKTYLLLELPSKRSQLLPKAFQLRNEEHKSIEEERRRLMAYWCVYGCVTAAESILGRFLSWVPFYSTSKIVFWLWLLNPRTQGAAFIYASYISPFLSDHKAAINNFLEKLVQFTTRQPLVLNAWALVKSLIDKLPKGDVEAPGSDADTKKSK

B1: Scs22 (protein, UniProt Q10484 1-319)
chain: MALECDSTIVFPRPLTRLVKCDLELRNTAPYPIGFKVKTTAPKQYCVRPNGGRIEANSAVSVEVILQPLDHEPAPGTKCRDKFLVQSTELKPELQGMDIADIWTQVSKANISERKIRCVYSEGPSTANAHANAHHQPAQTTTTSIPTSATDNYTTVNGNVNQSYSKGIDGTALPSTHANPVAAPSTATTQHTQLPKTSAVSHQKPHEAPSTAVKAPTATVAENEPYPKPQSVPTTTSPNNENNALRSTANVINNTRQSTATSPSMFAGNSGNQIGLARVSSSFGRPTSGAKVVPQIHNTVTVQTAFLLAIICFLIGLLF
B2: Rtn1 (protein, UniProt P53694 1-308)
chain: MSEQHSLNPFESGSVTASDVAAAKSGAEDLVNTLTAHTVHPSTELPSATSFPSALPNSENPVIQNISSSSSEPHHTSQSTPGETSSPVCPVSGAHGGADKKCPALEAGCPFTNTTKQNVDPEISNALWSVLTWKNTSCSFSTLMSILALVYVPSWINLPRLFFRTFRYVFLITSIIEFGGLFASNGKRGVLSHFRSSYITCDSKALDRIVNSIVDIFNVMLIQFQRILFAESPILTFTASVAAFIEFFLSGFLSYKSLFVWNVLFAFILPRLYVCNERSIKHLVASLERSGDKLKKQATETINTTVNK
B3: Yop1 (protein, UniProt Q9UU91 1-182)
chain: MSFQVRVKQNMQDLDNRLAAFPQLNSLEKNFGVSKLYVFLTAAGIYALFLFLNWGGFLLTNLLAFAMPAFFSINAIETTNKADDTQWLTYYLVTSFLNVIEYWSQLILYYVPVYWLLKAIFLIWLALPKFNGATIIYRHLIRPYITPHVIRICKSVSRQNAAPAPTASSFAHTTATDIPPSI
B4: Tts1 (protein, UniProt Q9Y7Z5 1-279)
chain: MEPKQRVVKPLKERVLPVVKNTQFVWFSGQVIVLISSVLYALQAIPFRSAPPFLFKSAAFGAIVAYAIVLYKTYSPNLTSRASWNKHFFARLMLDDNVQYFILALSMLIDRPILFSLAPYAIYATFHISTYLRSVLLPAIYPNISDAKTASYASRVSNLLNQYTRSQFQPAMQLVASLETFLLFRLFFGVFLRKNSISRLVGYIFFLRMRYTNSHFTRASIKAVSLRMDRLVADNRVPPVIKNAWHTFKTYVSKFGASPVGTAQSRPTASSSTTAPSST
B5: Sey1 (protein, UniProt Q9UTE0 1-762)
chain: MSTASNRVSTQIVDEHKQFNNELPKFMQSVGLLDAGFNYHVVAVLGSQSTGKSTLLNNLFGTSFSVMDASKRQQTTKGIWLSKANNSPILVMDVEGTDGRERGEDQDFERKSALFSISTSEVIIVNMWENQVGLYQGSNMALLKTVLEVNLQLFHNKKERCLLQFVIRDFLGNTSMENLADTIMTDLNNIWASLSKPEGFENSVINDFFDVGFTGLPHKILCSDAFSEAVDSLRERFVDNNNSDYIFNVSYHKKIPADGFSLYTREIWDTIENNKDLDLPTQQQLLAQYRCDEIITEVMEPFSTACTILQKEFLPGNLCKDLPTKLLNMFETVIEAYDRQASRYNVHIYQKKKQELIASVDSHLYVFFQAQLNALHKELIKSFFDASNEFPSDTPFKESSSIKINELVNKMREEGESLSLPHVHWDVDPFILKLSEELTQNSETLCKEKLKEKLEELFTGFEFEVSEAVEVAFQKLSHNVWDTLLNEFLAAQNTTIEKIKNIVPFYVDIDDTKTTEEYIINFKKNSWLFFRKKIDSEMSEVLLQQRLRVYFEELFRYDSDGMPKLWKKSGTIDRDYRESLTKTLDLINVLASIKVSDGNYPDLNVDIKTLEPEYTSPASFFTILNRRRVSDISVNFKRSADLIFMDCKRSVINTTTRIPPYFWVLLIVLGWNEFMAILRNPFVFMILMFGGTVVYGLYISGLIWPAKMVLERATNNLVDLATDRFSNTYQEQVQQRAMQRTEKSGSPVASADDAEAEKTALS
B6: Lnp1 (protein, UniProt O94414 1-334)
chain: MGWFFQKKKEFDFGGELDRLEMKLEEAQYNIDNIQSQKKKILFRYTVCSLAIYTIGMAVWASRSSILFQHPLFSKLFRISLYILGVFSLYMFRWAIAWFCEKRLSRARMNLHKLNAEKRKILDALKSRKEYFETQALLEKYGEQPTLAQKKLSNAAAAKSVPGSSSSSSDPMHPQHWYDRVLEGLVGANENSENNREALICSHCFHHNGLASYGEKASDVRYVCLFCKAWNGPPIDKSLPSSEMDSNLQTNPSSISKGKKNNSNNTTQKGPNIISSPQVINASSPVRKAGKKKSKKALPTSPLSSSSPDASYNSVSDSFHTVAASVPESLTPTK
B7: Scs2 (protein, UniProt O60119 1-383)
chain: MSVECSGELFFYPPFTTMSKELISVHNPNPEPVIFKVKTTAPKHYCVRPNSGKIEPKSTVNVQVLLQAMKEEPAPDFKCRDKFLIQSMAIGDADTSNVENYHEFWTEMEKQGRSIFDRKIRCVYSTKQPPQSADKQVENTSTSNPPVSVEGSENLASSVGGPTAVGVSLDEAQNDFNGAKDHLSNGVNTVVPDSTFRSTFESAQIPDASVVQTVVTDADNGAASVKDTIVTAESASSKGADVARSKVQDIIDNEIPKPSESPRRSVSSTPPVHPPPPVPQNLSAVNEEFDTKKNDFDSKLPESTPAVEKVSENLGSETRESLQGAKPAAGAHSSDNALEQIKPSYSADPSSSTGASLTESPGIPPNIVIILCLIFFLIGYLFF

target: T1, Yep1 (full-length, tagged with GFP or mCherry, expressed in S. pombe) (S. pombe); assay: affinity purification with mass spectrometry; Yep1-GFP as bait, GFP-Trap immunoprecipitation from S. pombe lysate, mass spectrometry; ER-localizing proteins against a control IP

binding, binds:
B1
B2
B3
B4
B5
B6
B7

Results are given in words; binding and its absence hold for the method and conditions named. In cells and extracts the contact can be indirect. A yes stands for co-enrichment or nearness to the bait. Other partners may have been found. Where a sequence is shown, tags or fusion partners need not be part of it.
